HELM strings list residues between dots; [ac] is acetyl, [am] amide, other brackets name non-standard units.
Assay: general procedure: Fmoc solid-phase peptide synthesis; HOBt/DCC
Settings: whole synthesis

Substance	isolated yield [%]
PEPTIDE1{[Nic].K.T.T.K.S}$$$$V2.0	53
PEPTIDE1{[Nic].Y.G.G.F.M}$$$$V2.0	65

Source: EP2420510B1 (BIO-FD&C Co., Ltd., priority 2010, dated 2013)
